In PMC3496659, “Analysis of the sulfur-regulated control of the cystathionine γ-lyase gene of Neurospora crassa”:
For at least one entry, the source does not settle the construct or the ends of the probe. A weaker result is weaker than the reference pair of the same experiment. At least one verdict rests on a figure or table, not on a statement of the authors. Where a protein sequence is shown, tags need not be part of it.

Target: T1, CYS3 transcriptional activator (Neurospora crassa) (UniProt P22697)
T1 sequence (looked up, limits assumed): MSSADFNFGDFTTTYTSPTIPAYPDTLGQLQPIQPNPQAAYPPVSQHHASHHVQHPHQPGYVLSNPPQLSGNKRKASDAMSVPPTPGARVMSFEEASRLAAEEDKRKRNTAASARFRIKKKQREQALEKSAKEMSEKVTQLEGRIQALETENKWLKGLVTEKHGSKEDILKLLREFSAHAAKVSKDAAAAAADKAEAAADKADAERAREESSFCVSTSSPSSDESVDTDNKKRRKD
Test: EMSA
Details: Binding buffer not given (refs 14,20); 4% PAGE in 50 mM Tris-80 mM glycine-2 mM EDTA pH 8.5, 20 mA, 4 C; recombinant protein; label: 32P (T4 PNK)

Sequence	binding result
TCACCAATTGGCTCCATCTCCGTC (double strand) [Site 4 M]	binds more weakly
GTCGTCGATGGGTTCAGTGGTGCT (double strand) [Site 2 M]	binds more weakly
GTCGTCGATGGTGTCAGTGGTGCT (double strand) [cys-16+ Site 2]	binds
ACCATGCATTCCGCCATAGAGGTA (double strand) [cys-16+ Site 1]	binds more weakly
ACCATGCATTCCTCCATAGAGGTA (double strand) [Site 1 M]	binds more weakly
TCACCAATTGGCGCCATCTCCGTC (double strand) [cys-16+ Site 4]	binds
AACCTGAATTGCTCCATCGCCAAA (double strand) [Site 3 M]	binds more weakly
